Measured values as given in paper PMC10681313.
Results are given in words; binding and its absence hold for the method and conditions named. Binding seen in cells or lysates may run through a third protein. Some binding calls cover weakened binding; strength is not graded here. Where a sequence is shown, tags or fusion partners need not be part of it.

Molecular target: T1, FLAG-tagged MIWI (mouse), Q9JMB7
T1 chain: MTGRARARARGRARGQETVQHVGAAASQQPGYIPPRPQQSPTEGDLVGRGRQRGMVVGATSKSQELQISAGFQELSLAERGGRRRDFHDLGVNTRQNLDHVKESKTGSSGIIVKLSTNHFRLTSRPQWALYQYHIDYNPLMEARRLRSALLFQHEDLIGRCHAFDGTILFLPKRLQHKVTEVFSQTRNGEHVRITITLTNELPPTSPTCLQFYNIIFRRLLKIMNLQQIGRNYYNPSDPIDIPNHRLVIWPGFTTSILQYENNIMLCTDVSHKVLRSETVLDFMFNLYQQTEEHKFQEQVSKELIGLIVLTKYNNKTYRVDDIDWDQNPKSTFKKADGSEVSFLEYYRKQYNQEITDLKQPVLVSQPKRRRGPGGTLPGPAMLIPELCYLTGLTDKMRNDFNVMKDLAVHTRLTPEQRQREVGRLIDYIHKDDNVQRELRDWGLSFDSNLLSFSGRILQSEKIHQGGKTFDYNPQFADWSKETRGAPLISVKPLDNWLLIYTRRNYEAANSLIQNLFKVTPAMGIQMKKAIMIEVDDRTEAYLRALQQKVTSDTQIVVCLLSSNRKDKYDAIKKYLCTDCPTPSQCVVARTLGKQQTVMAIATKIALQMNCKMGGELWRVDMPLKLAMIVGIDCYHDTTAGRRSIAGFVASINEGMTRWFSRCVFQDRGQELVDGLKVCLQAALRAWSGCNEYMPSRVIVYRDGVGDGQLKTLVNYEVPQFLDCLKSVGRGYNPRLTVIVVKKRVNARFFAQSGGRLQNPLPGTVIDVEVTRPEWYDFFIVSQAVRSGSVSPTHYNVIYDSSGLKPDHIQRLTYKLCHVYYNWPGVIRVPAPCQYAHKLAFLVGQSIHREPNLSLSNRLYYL
Test: co-IP; HEK293T cells co-transfected with FLAG-tagged MIWI or MIWI^RK and GFP-tagged proteins; after 48 h immunoprecipitation with anti-FLAG M2 Affinity Gel; Western blotting with anti-GFP and anti-FLAG
Conditions: remark: other sources report otherwise

B1: GFP-tagged PNLDC1, B2RXZ1 1-531 (protein)
chain: MDVGADEFEQSLPLLQELVAGADFVGLDIEFTGLRSNLSRPQQISLFDLPSEWYLKTRQSVQQFTICQIGLSMFSSIEGESNKYVAHSCNFFLFPTTFGILDSEFSFQASSVQFLNQYGFDYNKFLKNGIPYMNEEQEKKIKHSILRGNWRVRSSLDKDQIKVVIDKVTQWLDLAEEGDQMTLPGIAGFQAFEVQLVLRQALPNIWTVLKEEWVIVKKVSQPQRWYLEHASCDQVSCWKEQILLSARGFSVFFQMLVKAQKPLVGHNMMMDLLHLHEKFFRPLPESYDQFKQNIHSLFPVLIDTKNVTKDIWKELRFPRVSNLLEVYEVLSSNLNPTKDSGPVIIHARQCKKYAETKCPHEAAYDAFLCGSVLLKVAHLLLQRVHGNGAVHEPAFPQYLDVLAPYVNQVNLIRAGVPKINFSGPDYPSIRPPVLILTVKRWPGVSEQQVYREFQNLCKFDVRRFTRSQFLLLTNKFKDARSVLKEYRNHPTLQVSLYRSWRHSPNITCLLQVCSIVTTWAMIAFLLGRPMP
Question: How did the binding turn out when B1 was run?
Answer: Its binding is “binds”.
